The other results are listed elsewhere or left out.

Amino acid sequences for entries named in this document (tags omitted).
UniProt Q0JBA9, entry or part of it: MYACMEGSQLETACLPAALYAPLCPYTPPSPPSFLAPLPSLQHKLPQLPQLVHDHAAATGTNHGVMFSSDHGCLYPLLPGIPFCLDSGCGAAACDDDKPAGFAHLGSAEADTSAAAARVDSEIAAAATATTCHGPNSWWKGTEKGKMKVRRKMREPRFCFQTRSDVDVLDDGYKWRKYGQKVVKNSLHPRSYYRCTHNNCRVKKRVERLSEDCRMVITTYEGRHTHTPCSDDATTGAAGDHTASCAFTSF

The target in this assay is OsWRKY34 (Oryza sativa, UniProt Q0JBA9 1-250). The experiment in a line: protein-binding microarray (RPBM); PBS, 2% BSA, 51.3 ng/ul salmon testes DNA, 50 uM zinc acetate, 200 nM TF, 25 C, 1 h; high values mean tight binding. The following applies: protein: recombinant; tags: N-terminal polyhistidine and DsRed monomer fusion (pET32a); label: CyDye5-dUTP incorporated in the synthesized complementary strand; 3' TTTTT single-stranded linker to array surface; dsDNA, one strand shown. The method in brief: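 Transcription factors were made in E. coli BL21-CodonPlus as N-terminal fusions to a polyhistidine tag and DsRed, then purified on Ni–NTA. After primer extension with Cy5-dUTP and blocking with 2% BSA, a custom Agilent array was exposed for 1 h at 25 °C to 200 nM protein in PBS, 2% BSA, salmon testes DNA and 50 µM zinc acetate. Washed arrays were scanned on an Axon 4000B, and the binding signal is per-feature fluorescence intensity in arbitrary units.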
Take “TTGCCTTACAAAAGGATATAGAGTTCCATCGTTTCGTTTCCGGAGTCACCTAGTGCAG”: the binding signal was 9200 fluorescence intensity (a.u.).
Under “GCCCCACCCATCTCCACACTTTCCTCATCCCACGGCGCCCCGGAGTCACCTAGTGCAG” stands 8740 fluorescence intensity (a.u.); under “CGATCTGACTCTTAACTGCAGCTCATGATTTTCTATATATCGGAGTCACCTAGTGCAG”, 10300 fluorescence intensity (a.u.); under “CCAATAACACAGGGCATCATTTTTTCGCTTATGCTTATATCGGAGTCACCTAGTGCAG”, 9170 fluorescence intensity (a.u.).
Under “TGGGACTCTCAAATTGGTTCCTGATGCTAGAGTTTGCTTACGGAGTCACCTAGTGCAG” stands 8370 fluorescence intensity (a.u.); under “CCATCCCGCCGCCACCGCCGCCGCCGCCGCCTCATCCTCCCGGAGTCACCTAGTGCAG”, 9300 fluorescence intensity (a.u.); under “CTACTAGGGCCTCTAGCTCACCTCTCTTCGCTTCCAATTTCGGAGTCACCTAGTGCAG”, 14600 fluorescence intensity (a.u.).
“CGTTGTCACTCGGCTCGTTTTTTTATCAGTTATTCCTAAACGGAGTCACCTAGTGCAG”: the binding signal is 8380 fluorescence intensity (a.u.).
In the case of “TCACACCCCATCTATGTTGTCGCTCCACATAGGCTAGGCCCGGAGTCACCTAGTGCAG” it was 8350 fluorescence intensity (a.u.); in that of “ACGTTGTGTTTCGCCGCTGGCTCTTAGTGCGTGGGTATACCGGAGTCACCTAGTGCAG”, 8770 fluorescence intensity (a.u.); in that of “GTTATGTTAGGTCTGGTTTTTTGGCTGTAGCAGCAGCAGTCGGAGTCACCTAGTGCAG”, 8510 fluorescence intensity (a.u.).
In the case of “CTCACACTACCATTAACGTACTCCCTCATTCCAACCAACGCGGAGTCACCTAGTGCAG” it was 9740 fluorescence intensity (a.u.); in that of “GCGCATATTTGATATGTTCATGTTTTACTGCTTAGTTTACCGGAGTCACCTAGTGCAG”, 8790 fluorescence intensity (a.u.).
In the case of “AACCACGCCCACCGCCCACCACGGTGGCTCGCCGGCGCCGCGGAGTCACCTAGTGCAG” it was 9150 fluorescence intensity (a.u.); in that of “AAAGAGAGAGGTGGTTTTGTTTTGTTTGTCCGGTAATGGCCGGAGTCACCTAGTGCAG”, 8120 fluorescence intensity (a.u.); in that of “TCCATCCGCGCATTAATCCCATTTCTGCTCGCAAGTTAATCGGAGTCACCTAGTGCAG”, 9930 fluorescence intensity (a.u.).
With “CACGTGCCCAACTAACACATACATTCATCATATATACACCCGGAGTCACCTAGTGCAG”, the binding signal was 8830 fluorescence intensity (a.u.).
Under “CGGTAGGGCCCACATGTCTGTCGGGGTGGGCGGTGGTGGTCGGAGTCACCTAGTGCAG” stands 10800 fluorescence intensity (a.u.); under “ATCCATGTCCATCCATCTATCCGTCCGTCCGTCCATCCATCGGAGTCACCTAGTGCAG”, 11300 fluorescence intensity (a.u.); under “TTTTCTGCCCGTATACCAATCACCCTTGAGCTCCCACTCACGGAGTCACCTAGTGCAG”, 10400 fluorescence intensity (a.u.).
Under “ACGCCGAGTCGCGCCAACCATCCACTCCCTGTCGCGCGCCCGGAGTCACCTAGTGCAG” stands 8400 fluorescence intensity (a.u.); under “AGAGGGTGGCTTATGCAACGCATACTCTATTGTCCTGTGCCGGAGTCACCTAGTGCAG”, 9340 fluorescence intensity (a.u.).
Under “CAAGATGCTACATTAAACCCGATTCAATCTTTCGCTATTTCGGAGTCACCTAGTGCAG” stands 8770 fluorescence intensity (a.u.); under “CGTTTGTACTGTGTGGTGGTTGGTGATTGGGTGTTGTGCCCGGAGTCACCTAGTGCAG”, 13900 fluorescence intensity (a.u.).
Regarding “GTTTCATCTGTGCTTCGACTGTAATAGATCGTTTCTGTGCCGGAGTCACCTAGTGCAG”, the binding signal is 8380 fluorescence intensity (a.u.).
Under “ACGATAATAGTGGGTGATATAATATTGTCTTGGCCAAAAACGGAGTCACCTAGTGCAG” stands 8100 fluorescence intensity (a.u.).
On to “AAATATTTGACGCCGTTGACTTTCTTAAACATGTTTAACTCGGAGTCACCTAGTGCAG”, for which the binding signal was 15700 fluorescence intensity (a.u.).
Under “CTTGGACTAGTACTGGACTCTACTTCTACTGCTGCTGCGCCGGAGTCACCTAGTGCAG” stands 8030 fluorescence intensity (a.u.); under “TCATCTCGCATTTCACTATTTGCCACTCGTGTGTCTATGACGGAGTCACCTAGTGCAG”, 12200 fluorescence intensity (a.u.); under “ACAAACCATCGTATACACGACGACTCCACCTATCTCGGCACGGAGTCACCTAGTGCAG”, 8430 fluorescence intensity (a.u.).
For the sequence “ACGTGCTCAGTCATCATCCTCATGGCCGTTCCTTGCCGAACGGAGTCACCTAGTGCAG”, the binding signal is 8060 fluorescence intensity (a.u.).
In the case of “CTGCCACCATTCGCCATTGGATCCTGAATTTGATTCCAACCGGAGTCACCTAGTGCAG” it was 11800 fluorescence intensity (a.u.); in that of “GCGCCGTCGTTCGTCCCTGCTGCTTCCGCCGTCGCATCCCCGGAGTCACCTAGTGCAG”, 8900 fluorescence intensity (a.u.).
Under “TGATTGTCAAGGTTTTCTTTTGATTGTTCTCACTCTATTCCGGAGTCACCTAGTGCAG” stands 8200 fluorescence intensity (a.u.); under “AAGGGAGAGGGGAGAGATGGTGCTGCCGTGCCGAGCTCTTCGGAGTCACCTAGTGCAG”, 8590 fluorescence intensity (a.u.).
As to “AGCTTGATACCTATGCATGAATTAATTGATTTTCTATTTCCGGAGTCACCTAGTGCAG”, the binding signal was 8840 fluorescence intensity (a.u.).
Turning to “CGTGCACACTCACTATGTTTGAAAGACTGGCACTTCATATCGGAGTCACCTAGTGCAG”, the binding signal is 8300 fluorescence intensity (a.u.).
In the case of “GCCCCGAGCCGAGACCGCTGGATAATGCAGCGCTTCTTACCGGAGTCACCTAGTGCAG” it was 20100 fluorescence intensity (a.u.).
In the case of “GGTTTCGTTGGTGGGGTTTTTTCATGGTGGCTAGGGTTTTCGGAGTCACCTAGTGCAG”, the binding signal was 51100 fluorescence intensity (a.u.).
In the case of “CCGCCTCACCACTCGGATAAACACACACACACACACACACCGGAGTCACCTAGTGCAG”, the binding signal was 9680 fluorescence intensity (a.u.).
In the case of “TTCTTCCTGATCTGCAGAGCTGCAGTCTCAGTCTGTCCTGCGGAGTCACCTAGTGCAG” it was 8560 fluorescence intensity (a.u.); in that of “ACCTGCATCCTCTAATCCCCGCGTGGGCGGCGCCTTGTCTCGGAGTCACCTAGTGCAG”, 8170 fluorescence intensity (a.u.).

For the origin of these results see PMC7819943, “Rice protein-binding microarrays: a tool to detect cis-acting elements near promoter regions in rice”.
